# Reference: the supplement of paper PMC10849652
# By UniProt entry, the sequences of proteins in these tests, tags left out. Where a name states a change or a piece, a line headed by the entry shows the natural chain unless it says otherwise.
# UniProt P24390: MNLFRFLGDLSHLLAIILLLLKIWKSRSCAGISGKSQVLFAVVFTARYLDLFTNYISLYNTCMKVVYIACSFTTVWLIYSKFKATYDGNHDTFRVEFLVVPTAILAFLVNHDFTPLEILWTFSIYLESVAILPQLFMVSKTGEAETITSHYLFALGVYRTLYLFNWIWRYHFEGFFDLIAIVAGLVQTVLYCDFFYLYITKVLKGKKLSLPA
# UniProt P28290: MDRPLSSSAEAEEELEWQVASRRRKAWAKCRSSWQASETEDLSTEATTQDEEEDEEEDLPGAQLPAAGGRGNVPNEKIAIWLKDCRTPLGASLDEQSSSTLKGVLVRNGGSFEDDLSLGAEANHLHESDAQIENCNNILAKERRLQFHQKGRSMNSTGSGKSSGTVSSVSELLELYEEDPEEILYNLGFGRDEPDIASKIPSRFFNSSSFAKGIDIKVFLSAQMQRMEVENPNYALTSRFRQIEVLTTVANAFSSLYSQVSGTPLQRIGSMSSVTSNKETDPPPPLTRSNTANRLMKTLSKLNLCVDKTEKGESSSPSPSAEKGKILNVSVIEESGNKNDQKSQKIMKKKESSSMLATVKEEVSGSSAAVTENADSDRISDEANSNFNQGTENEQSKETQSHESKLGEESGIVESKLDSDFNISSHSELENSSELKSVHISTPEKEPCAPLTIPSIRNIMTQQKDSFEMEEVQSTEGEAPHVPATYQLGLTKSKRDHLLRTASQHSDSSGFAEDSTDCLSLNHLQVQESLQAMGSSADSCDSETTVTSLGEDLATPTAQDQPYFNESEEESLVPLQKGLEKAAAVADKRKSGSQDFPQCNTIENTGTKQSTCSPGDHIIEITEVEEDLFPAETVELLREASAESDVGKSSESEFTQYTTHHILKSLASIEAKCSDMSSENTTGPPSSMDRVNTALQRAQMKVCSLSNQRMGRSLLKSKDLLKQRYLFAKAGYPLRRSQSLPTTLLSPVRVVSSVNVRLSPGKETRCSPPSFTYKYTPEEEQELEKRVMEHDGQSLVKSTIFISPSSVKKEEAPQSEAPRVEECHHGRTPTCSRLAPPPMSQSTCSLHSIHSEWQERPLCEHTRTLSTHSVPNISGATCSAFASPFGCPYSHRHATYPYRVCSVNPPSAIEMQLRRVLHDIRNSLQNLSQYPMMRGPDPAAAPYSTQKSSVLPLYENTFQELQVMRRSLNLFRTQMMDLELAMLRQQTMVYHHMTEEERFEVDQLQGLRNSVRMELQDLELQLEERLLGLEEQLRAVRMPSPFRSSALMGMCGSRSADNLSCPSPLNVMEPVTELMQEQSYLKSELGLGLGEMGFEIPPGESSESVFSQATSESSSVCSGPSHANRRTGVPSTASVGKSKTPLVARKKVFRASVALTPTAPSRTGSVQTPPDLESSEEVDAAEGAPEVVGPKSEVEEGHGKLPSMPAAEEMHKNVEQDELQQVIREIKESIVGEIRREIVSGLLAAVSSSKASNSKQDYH
# UniProt Q9Y4C1: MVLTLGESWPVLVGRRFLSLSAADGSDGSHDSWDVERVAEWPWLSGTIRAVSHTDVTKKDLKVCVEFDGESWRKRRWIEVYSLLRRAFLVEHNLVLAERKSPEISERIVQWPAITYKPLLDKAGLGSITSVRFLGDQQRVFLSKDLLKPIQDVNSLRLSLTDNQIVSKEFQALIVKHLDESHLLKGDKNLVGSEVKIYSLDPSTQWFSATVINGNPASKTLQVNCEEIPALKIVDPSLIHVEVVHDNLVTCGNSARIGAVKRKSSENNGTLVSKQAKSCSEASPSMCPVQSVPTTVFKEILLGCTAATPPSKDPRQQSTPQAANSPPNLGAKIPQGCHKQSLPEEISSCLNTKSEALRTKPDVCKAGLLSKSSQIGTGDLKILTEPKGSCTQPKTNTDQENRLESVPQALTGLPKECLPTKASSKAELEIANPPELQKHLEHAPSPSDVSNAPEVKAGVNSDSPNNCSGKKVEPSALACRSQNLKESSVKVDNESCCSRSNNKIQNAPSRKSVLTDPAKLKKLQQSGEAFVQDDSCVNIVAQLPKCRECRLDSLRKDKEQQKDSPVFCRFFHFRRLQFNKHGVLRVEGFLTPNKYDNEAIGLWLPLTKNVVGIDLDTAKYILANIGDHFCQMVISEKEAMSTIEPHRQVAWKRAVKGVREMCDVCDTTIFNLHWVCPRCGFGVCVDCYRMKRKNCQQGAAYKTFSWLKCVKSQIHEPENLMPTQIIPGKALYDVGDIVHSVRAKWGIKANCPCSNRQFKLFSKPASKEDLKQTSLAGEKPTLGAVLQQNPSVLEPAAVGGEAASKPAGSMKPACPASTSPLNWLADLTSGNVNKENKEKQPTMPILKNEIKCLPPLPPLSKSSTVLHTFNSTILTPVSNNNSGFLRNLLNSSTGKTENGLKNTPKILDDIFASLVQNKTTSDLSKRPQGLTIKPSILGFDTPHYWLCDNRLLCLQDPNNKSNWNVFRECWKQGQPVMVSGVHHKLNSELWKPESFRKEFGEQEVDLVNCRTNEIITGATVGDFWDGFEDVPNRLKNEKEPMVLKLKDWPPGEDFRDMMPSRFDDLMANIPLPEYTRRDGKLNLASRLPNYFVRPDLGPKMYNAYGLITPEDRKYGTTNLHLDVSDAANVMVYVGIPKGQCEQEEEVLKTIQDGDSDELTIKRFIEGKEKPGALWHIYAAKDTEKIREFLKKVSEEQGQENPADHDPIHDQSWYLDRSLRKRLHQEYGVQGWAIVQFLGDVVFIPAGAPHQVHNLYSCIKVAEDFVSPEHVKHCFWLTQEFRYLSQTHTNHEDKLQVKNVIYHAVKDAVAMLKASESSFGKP
# UniProt Q8WYB5, whole entry, looked up: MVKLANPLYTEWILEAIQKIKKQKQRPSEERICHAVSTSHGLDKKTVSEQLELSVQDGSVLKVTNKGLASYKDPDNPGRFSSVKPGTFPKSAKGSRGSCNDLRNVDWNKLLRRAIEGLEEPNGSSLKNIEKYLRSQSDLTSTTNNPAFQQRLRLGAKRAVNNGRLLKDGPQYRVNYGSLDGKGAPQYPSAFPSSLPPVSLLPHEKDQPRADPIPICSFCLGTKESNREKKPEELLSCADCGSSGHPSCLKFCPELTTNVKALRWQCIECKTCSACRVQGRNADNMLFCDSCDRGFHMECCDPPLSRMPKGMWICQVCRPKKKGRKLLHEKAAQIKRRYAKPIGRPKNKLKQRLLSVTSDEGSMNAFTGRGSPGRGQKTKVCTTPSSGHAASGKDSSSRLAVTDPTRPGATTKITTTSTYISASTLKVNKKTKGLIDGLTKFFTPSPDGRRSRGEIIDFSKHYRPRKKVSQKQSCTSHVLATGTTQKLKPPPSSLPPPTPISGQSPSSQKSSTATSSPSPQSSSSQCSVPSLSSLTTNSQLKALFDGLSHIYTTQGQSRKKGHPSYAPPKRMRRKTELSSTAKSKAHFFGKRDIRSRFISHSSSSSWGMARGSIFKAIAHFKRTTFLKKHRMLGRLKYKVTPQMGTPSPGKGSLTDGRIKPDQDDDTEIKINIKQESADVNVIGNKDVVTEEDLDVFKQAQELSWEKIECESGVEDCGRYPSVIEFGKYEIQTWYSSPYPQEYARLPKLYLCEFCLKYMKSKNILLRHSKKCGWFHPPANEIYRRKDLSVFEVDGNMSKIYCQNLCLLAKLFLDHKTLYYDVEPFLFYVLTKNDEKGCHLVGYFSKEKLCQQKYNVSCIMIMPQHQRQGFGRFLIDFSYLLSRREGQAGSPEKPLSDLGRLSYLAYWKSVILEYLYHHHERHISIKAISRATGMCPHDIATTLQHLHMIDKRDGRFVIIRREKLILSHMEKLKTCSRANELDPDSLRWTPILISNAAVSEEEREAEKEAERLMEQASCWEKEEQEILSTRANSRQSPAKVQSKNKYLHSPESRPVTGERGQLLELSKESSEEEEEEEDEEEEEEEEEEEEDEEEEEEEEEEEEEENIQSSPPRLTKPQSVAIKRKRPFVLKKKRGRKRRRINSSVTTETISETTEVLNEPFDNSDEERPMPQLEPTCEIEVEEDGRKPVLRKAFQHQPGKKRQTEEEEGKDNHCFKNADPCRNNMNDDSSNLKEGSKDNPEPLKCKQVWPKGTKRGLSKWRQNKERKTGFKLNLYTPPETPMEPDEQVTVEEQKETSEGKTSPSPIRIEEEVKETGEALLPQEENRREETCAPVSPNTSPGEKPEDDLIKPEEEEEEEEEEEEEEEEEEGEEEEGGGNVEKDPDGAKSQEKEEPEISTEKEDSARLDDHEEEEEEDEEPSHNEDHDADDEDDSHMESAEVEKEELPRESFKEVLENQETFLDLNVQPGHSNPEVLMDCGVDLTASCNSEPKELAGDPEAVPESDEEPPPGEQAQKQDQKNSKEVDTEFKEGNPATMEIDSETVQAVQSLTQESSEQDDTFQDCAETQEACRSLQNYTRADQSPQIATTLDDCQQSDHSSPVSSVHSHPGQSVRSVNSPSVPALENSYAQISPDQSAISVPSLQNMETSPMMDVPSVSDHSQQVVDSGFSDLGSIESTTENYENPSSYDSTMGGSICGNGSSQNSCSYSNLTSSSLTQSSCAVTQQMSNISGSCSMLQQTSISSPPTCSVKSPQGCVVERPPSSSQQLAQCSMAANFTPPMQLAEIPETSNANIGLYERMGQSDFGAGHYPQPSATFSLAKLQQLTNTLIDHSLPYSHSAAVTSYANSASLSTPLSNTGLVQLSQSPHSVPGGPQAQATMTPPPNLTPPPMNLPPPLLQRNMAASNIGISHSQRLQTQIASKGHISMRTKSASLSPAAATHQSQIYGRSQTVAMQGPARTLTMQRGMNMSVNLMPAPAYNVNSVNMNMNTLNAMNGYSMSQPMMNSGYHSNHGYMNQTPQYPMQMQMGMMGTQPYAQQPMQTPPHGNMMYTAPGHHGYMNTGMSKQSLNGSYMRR
# UniProt P08514, whole entry, looked up: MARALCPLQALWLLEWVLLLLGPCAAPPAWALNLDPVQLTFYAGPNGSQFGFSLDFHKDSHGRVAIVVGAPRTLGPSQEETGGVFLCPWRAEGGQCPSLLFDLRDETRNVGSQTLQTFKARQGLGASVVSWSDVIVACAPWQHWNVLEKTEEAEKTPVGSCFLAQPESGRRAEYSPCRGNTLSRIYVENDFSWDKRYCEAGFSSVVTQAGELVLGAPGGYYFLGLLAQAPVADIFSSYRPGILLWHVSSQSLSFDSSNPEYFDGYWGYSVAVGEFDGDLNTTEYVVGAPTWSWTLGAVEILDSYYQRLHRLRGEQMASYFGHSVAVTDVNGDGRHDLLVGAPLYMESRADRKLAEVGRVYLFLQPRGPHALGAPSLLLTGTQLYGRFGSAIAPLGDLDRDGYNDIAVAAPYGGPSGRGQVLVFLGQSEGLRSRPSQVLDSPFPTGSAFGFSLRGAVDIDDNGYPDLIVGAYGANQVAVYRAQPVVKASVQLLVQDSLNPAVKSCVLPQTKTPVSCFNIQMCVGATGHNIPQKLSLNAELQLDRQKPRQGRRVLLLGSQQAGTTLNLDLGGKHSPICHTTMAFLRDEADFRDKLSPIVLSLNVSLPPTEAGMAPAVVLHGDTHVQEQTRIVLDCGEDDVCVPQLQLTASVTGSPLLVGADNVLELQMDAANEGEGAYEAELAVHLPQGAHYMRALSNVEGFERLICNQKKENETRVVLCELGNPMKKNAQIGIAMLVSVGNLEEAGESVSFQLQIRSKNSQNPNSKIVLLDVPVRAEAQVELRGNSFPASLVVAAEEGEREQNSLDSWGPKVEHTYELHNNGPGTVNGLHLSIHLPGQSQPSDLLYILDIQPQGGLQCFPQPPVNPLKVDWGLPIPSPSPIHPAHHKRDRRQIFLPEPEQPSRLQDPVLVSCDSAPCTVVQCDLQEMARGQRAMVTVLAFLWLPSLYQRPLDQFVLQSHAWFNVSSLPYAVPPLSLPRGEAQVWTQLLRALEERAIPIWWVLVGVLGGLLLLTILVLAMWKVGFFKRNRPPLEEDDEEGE
# UniProt Q8IU81: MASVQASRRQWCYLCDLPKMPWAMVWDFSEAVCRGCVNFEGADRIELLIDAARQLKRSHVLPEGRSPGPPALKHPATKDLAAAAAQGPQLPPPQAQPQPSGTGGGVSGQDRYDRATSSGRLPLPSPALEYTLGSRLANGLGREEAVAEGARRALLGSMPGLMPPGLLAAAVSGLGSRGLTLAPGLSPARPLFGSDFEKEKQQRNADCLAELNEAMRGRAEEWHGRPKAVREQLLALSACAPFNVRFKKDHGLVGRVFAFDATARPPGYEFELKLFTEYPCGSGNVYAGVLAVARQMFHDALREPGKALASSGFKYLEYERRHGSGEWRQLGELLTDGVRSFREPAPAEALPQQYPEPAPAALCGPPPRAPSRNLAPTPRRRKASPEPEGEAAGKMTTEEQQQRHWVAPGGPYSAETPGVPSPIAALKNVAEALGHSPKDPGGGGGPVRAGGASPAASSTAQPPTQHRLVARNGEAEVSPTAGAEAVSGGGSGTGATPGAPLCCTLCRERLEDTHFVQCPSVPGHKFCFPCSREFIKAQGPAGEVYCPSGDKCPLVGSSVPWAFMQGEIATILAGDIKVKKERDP
# This is one part of the list.
# Compound: CNC(=O)C1=CC=CC=C1NC2=NC(=NC=C2Cl)NC3=C(C=C(C=C3)N4CCOCC4)OC
# Assay: log2 fold change, soluble protein after heating vs DMSO (PISA); higher = thermal stabilisation; K562 lysate, 10 uM; active = over 0.2 and 3.5 SD of the protein, either way, in both replicates (recomputed)
# In short: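 The values are log-two fold changes in thermal stability compared with solvent controls and come from duplicates. They were obtained by TMTpro 16plex LC-MS/MS, with channel sums equalised, on the supernatant after 21,000xg for 90 min. That supernatant came from crude K562 extract at 1 mg/mL protein treated with 10 μM compound for 30 min, heated for 3 min across 48°C-58°C, pooled and brought to 0.5% NP-40 at 4°C.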
row,Target,log2 fold change
1,KDELR1 (UniProt P24390),inactive: 0.036
2,IREB2 (UniProt P48200),inactive: 0.019
3,ITGA5 (UniProt P08648),inactive: 0.001
4,JMJD1C (UniProt Q15652),inactive: 0.004
5,ITPRID2 (UniProt P28290),inactive: 0.187
6,KANSL1 (UniProt Q7Z3B3),inactive: 0.156
7,IRAK4 (UniProt Q9NWZ3),active: 0.261
8,KDM3A (UniProt Q9Y4C1),inactive: -0.031
9,IQSEC2 (UniProt Q5JU85),inactive: 0.037
10,KAT6B (UniProt Q8WYB5),inactive: 0.195
11,KDM2A (UniProt Q9Y2K7),inactive: 0.023
12,JMY (UniProt Q8N9B5),inactive: -0.008
13,ISOC2 (UniProt Q96AB3),inactive: 0.076
14,ITGAE (UniProt P38570),inactive: -0.108
15,INTS6L (UniProt Q5JSJ4),inactive: -0.04
16,KCNN4 (UniProt O15554),inactive: -0.047
17,INTS7 (UniProt Q9NVH2),inactive: -0.025
18,INTS6 (UniProt Q9UL03),inactive: -0.221
19,ITGA2B (UniProt P08514),inactive: -0.051
20,KARS1 (UniProt Q15046),inactive: -0.037
21,IQGAP3 (UniProt Q86VI3),inactive: 0.069
22,IRF2BP1 (UniProt Q8IU81),inactive: 0.095
23,INTS5 (UniProt Q6P9B9),inactive: 0.027
24,ITPKC (UniProt Q96DU7),inactive: -0.014

# Given tab-delimited: part of the list above.
row	Target	log2 fold change
21	IQGAP3 (UniProt Q86VI3)	inactive: 0.069
22	IRF2BP1 (UniProt Q8IU81)	inactive: 0.095
